In patent US20220242974A1 (QURE BIOTECHNOLOGY SHANGHAI, published 2022):
These are yes or no findings as the source states them, for the method shown. Some binding calls cover weakened binding; strength is not graded here.

Protein sequences, listed by entry. Tags and fused reporters are not part of them. Lines headed by an entry give the natural chain unless they say otherwise; changes in a name come on top.
UniProt Q9NZQ7: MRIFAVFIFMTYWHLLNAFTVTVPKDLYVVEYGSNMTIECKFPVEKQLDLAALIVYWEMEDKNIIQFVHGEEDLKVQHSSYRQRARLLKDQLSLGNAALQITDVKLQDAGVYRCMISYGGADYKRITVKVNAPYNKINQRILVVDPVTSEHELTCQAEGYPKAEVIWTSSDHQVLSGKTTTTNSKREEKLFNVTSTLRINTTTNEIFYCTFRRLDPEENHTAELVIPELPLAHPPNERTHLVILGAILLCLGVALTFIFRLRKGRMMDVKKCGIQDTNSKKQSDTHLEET

Target: PD-L1-his fusion protein (Homo sapiens (Human)) (UniProt Q9NZQ7)
Experiment: ELISA, PD-L1-his coated, culture supernatant of the clone

B1: QP1120 nanobody (VHH)
VHH: QVQLVESGGGSVQSGGSLRLSCAASGFTYGTYAMSWFRQAPGKEREGVACIDIYGRTSYTDPVKGRFTISQDNAKNTLYLQMNSLKPEDTAMYYCAARDFGYCTASWVHEGFSRYWGQGTQVTVSS
- binding: binds
